From patent publication US20120041305A1, “LIGHT-EMITTING DYE FOR INTRAOPERATIVE IMAGING OR SENTINEL LYMPH NODE BIOPSY” (THE UNIVERSITY OF UTAH RESEARCH FOUNDATION, priority 2009, published 2012)

Assay: Porcine model of lymphatic mapping (intradermal limb injection)
Format: in vivo
Settings: swine, injected in the same location

What does the source list for `CCN(CC)c1ccc(C(=C2C=CC(=[N+](CC)CC)C=C2)c2cc(S(=O)(=O)[O-])ccc2S(=O)(=O)[O-])cc1.[Na+]` [Lymphazurin, isosulfan blue]?
co-localization of fluorescein and blue dye in lymphatics and SLN (listed as Lymphazurin™): co-localized in the same lymphatic trunks and drained to the same SLN; co-localization of fluorescein and blue dye in lymphatics and SLN (listed as isosulfan blue): co-localizes in the afferent lymphatics and the sentinel lymph node
